Laboratory results as given in PubChem BioAssay AID2551 (National Center for Advancing Translational Sciences (NCATS), 2010).
In all, about 310,000 compounds went through this assay and about 17,000 (5.5%) were called active. The shares of active, inactive and inconclusive entries below differ from those in the screen. Calls come from the whole dose curve; as a rule, active = well fitted inhibition curve with a large enough effect; inconclusive = small, poorly fitted or top-dose-only effect, or effect the other way; inactive = no such curve, though single readings can be large or run the other way. Potencies of inconclusive entries are doubtful fits and often do not repeat.

The chains behind the UniProt entries cited, without tags or fusion partners. Where a name states a change or a piece, a line headed by the entry shows the natural chain unless it says otherwise.
UniProt P51450: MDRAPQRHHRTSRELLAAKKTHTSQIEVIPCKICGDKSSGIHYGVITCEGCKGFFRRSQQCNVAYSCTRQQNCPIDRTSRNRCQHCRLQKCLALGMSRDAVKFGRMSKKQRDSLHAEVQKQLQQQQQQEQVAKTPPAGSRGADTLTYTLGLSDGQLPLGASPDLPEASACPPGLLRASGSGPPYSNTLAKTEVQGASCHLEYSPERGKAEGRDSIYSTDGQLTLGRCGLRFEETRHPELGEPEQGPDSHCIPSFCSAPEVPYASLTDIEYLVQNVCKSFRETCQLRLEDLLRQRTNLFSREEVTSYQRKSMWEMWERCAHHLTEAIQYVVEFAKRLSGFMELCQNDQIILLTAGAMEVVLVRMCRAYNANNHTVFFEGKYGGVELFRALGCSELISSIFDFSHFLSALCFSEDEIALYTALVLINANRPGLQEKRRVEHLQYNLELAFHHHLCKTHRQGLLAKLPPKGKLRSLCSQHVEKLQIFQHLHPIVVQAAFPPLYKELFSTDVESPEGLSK

target: Nuclear receptor ROR-gamma (Mus musculus) (UniProt P51450); experiment: qHTS for inhibitors of ROR gamma transcriptional activity; conditions: Drosophila S2 Gal4-RORgamma UAS-luciferase reporter, 20 h; activity change, negative = inhibition: at 53.6 µM (top of the series); note: nearly all actives have a fitted effect of over 60% in size
Procedure, shortened: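 Luciferase reporter read in Schneider cells carrying Gal4-RORγ (mouse) and UAS-Photinus luciferase; cells given compound 1 h before 700 uM copper sulfate induction, then incubated 20 h at ambient temperature.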
% is set by controls: 0 for no effect and ±100 for the full control effect; potency is the fitted concentration of half-maximal effect.

SMILES	Potency	activity change, negative = inhibition
CCOC(=O)c1[nH]c2ccc(Br)cc2c1NC(=O)CCN1CCN(C(=O)OCC)CC1	inconclusive: 12.6 µM [activator, single point]	
CC(=O)c1ccc(NC(=S)Nc2cccc3ccccc23)cc1	active: 14.1 µM	
CC(=O)c1cccc(NC(=S)Nc2cccc3ccccc23)c1	active: 12.6 µM	
O=C(CCCn1cnc([N+](=O)[O-])n1)Nc1cccc(Cl)c1Cl		inactive: -5.11% [at 10 µM]
COc1cccc(NC(=S)Nc2cccnc2)c1	inconclusive: 3.55 µM [inhibitor, single point]	
Cc1cc(C(=O)OCC(=O)N2CC(=O)Nc3ccccc32)c(C)n1-c1ccc(F)cc1	inconclusive: 12.6 µM [activator, partial curve]	
COc1ccc(C(=O)NCc2nnc(SCC(=O)Nc3nc4ccccc4s3)o2)cc1	active: 11.2 µM	
CN(C)c1nc(N)nc(CSc2nnnn2-c2cccc3ccccc23)n1	inconclusive: 6.31 µM [inhibitor, single point]	
CCCCc1nc(Cl)c(C#N)c2c1CSC(C)(C)C2	inconclusive: 10 µM [activator, partial curve]	
CC1CN(C(=O)c2cccc(S(=O)(=O)N3CCN(c4ccc(F)cc4)CC3)c2)CC(C)O1 (stereo not drawn)	inconclusive: 31.6 µM [activator, single point]	
CCCCn1cnc2c(c(-c3ccccc3)c(-c3ccccc3)n2Cc2ccco2)c1=N		inactive: -42.2%
Cc1ccc(C(=O)Nc2ncc(C)s2)o1	inconclusive: 17.8 µM [inhibitor, single point]	
COc1cc2c(cc1OC)C(c1cc(Br)ccc1F)N(C(=O)CCl)CC2 (stereo not drawn)	active: 7.94 µM	
O=C(CSc1ccccn1)N/N=C/C=C/c1ccccc1	inconclusive: 35.5 µM [inhibitor, single point]	
CN(c1ccc(OCC(=O)N2CCOCC2)cc1)S(=O)(=O)c1ccc(Cl)cc1	inconclusive: 31.6 µM [activator, single point]	
CC1CCCC(C)N1C(=O)COC(=O)c1ccc2c(c1)OCO2 (stereo not drawn)	inconclusive: 11.2 µM [activator, single point]	
O=C(Nc1ccc(C(=O)O)cc1)/C(=C\C=C\c1ccccc1)NC(=O)c1ccccc1Br	inconclusive: 22.4 µM [inhibitor, single point]	
O=C(Nc1ccc2c(c1)CCC2)C1CCN(c2ncccn2)CC1	inconclusive: 12.6 µM [activator, single point]	
CC(C)c1nc2ccc(C(=O)O)cc2[nH]1	active: 8.91 µM	
Cc1cccc(Cn2cc(SCC(=O)Nc3nccs3)c3ccccc32)c1	inconclusive: 8.91 µM [inhibitor, partial curve]	
CCCOc1ccc(NC(=O)C2CC(=O)N/C(=N/N=C(\C)CCc3ccc4c(c3)OCO4)S2)cc1 (stereo not drawn)	inconclusive: 10 µM [inhibitor, single point]	
Cn1cc(Br)c(NC(=O)/C=C/C(=O)O)n1	inconclusive: 10 µM [inhibitor, partial curve, poor fit]	
CCC(=O)[C@@]1(O)C(=O)N2C(=C3C(=O)OCCC31)N(Cc1ccccc1)C(C)=C(C(=O)OC)C2c1ccccc1 (stereo partly drawn)		inactive: 5.91% [at 10 µM]

SMILES	Potency	activity change, negative = inhibition
O=C(c1cn(-c2ccccc2)nc1-c1cccs1)N1CCN(c2ccccc2)CC1	inconclusive: 17.8 µM [activator, single point]	
O=S(=O)(Nc1cccc2ccccc12)c1ccccc1		inactive: 0.983%
COc1ccc(OC)c(NC(=O)Cn2cc(C#N)c3cc(Br)ccc32)c1	inconclusive: 15.8 µM [inhibitor, single point]	
c1csc(C(c2nnnn2C2CCCC2)N2CCOCC2)c1 (stereo not drawn)		inactive: -5.79% [at 10 µM]
CSc1cccc(NC(=O)/C=C/c2ccccc2)c1	inconclusive: 3.16 µM [activator, partial curve, poor fit]	
CSc1nsc(/C=C/Nc2ccc(O)cc2C)c1C#N	inconclusive: 35.5 µM [inhibitor, single point]	
Fc1cccc(C[n+]2csc3ccccc32)c1	inconclusive: 35.5 µM [inhibitor, single point]	
CCOC(=O)c1c(C)[nH]c(C(=O)N/N=C/c2ccc(Br)cc2)c1C	inconclusive: 35.5 µM [inhibitor, single point]	
CCCS(=O)(=O)c1c(S(=O)(=O)CCC)c2cc(-c3ccncc3)ccn2c1C(=O)OC	inconclusive: 11.2 µM [inhibitor, partial curve]	
Cc1ccc(-c2nnc(Nc3ccc(CC(N)=O)cc3)c3ccccc23)cc1	inconclusive: 7.94 µM [activator, partial curve]	
Cc1ccc(-c2ccc(SCC(=O)N3CCN(c4ccccc4)CC3)nn2)cc1	inconclusive: 25.1 µM [inhibitor, single point]	
Cc1ccccc1C(=O)N1CCN(c2ccc(NC(=O)CSc3ccc(Cl)cc3)cc2)CC1	inconclusive: 12.6 µM [activator, partial curve]	
O=[N+]([O-])c1cccc(/C=C/c2ccc3cccc(O)c3n2)c1	active: 3.16 µM	
Cc1ccccc1Nc1nc(CSc2nnc(-c3ccoc3C)n2C)cs1	inconclusive: 35.5 µM [inhibitor, single point]	
CN(C)NC(=S)Nc1ccc2nc(-c3ccccn3)c(-c3ccccn3)nc2c1	active: 12.6 µM	
O=C1C=C(NCc2ccccc2)c2ccccc2C1=O	active: 15.8 µM	
CC1CCN(C(=O)CN2C(=O)C(C)(C)Oc3ccc(C(=O)NC4CCCC4)cc32)CC1	inconclusive: 14.1 µM [activator, partial curve]	
Cc1ccc(C)c(N2CCN(C(=O)c3ccc(Cn4c(=S)[nH]c5ccc(N6CCOCC6)cc5c4=O)cc3)CC2)c1	active: 2.82 µM	
Cc1ccc(-c2noc(-c3cccs3)n2)cc1	inconclusive: 10 µM [inhibitor, partial curve, poor fit]	
O=C(Nc1ccccc1)C(=O)Nc1cccnc1	inconclusive: 8.91 µM [inhibitor, partial curve]	
CCc1cccc2c(C(=O)COC(=O)c3ccccc3)c[nH]c12		inactive: 55%
CCN(CC)CC(O)COc1ccc2c(c1)c(C(C)=O)c(C)n2-c1ccccc1 (stereo not drawn)	inconclusive: 3.98 µM [activator, full curve, poor fit]	
COc1cc(NC(=S)N2CCC(C(O)(c3ccccc3)c3ccccc3)CC2)cc(OC)c1	active: 14.1 µM	

SMILES	Potency	activity change, negative = inhibition
O=C(COC(=O)c1cc(S(=O)(=O)N2CCc3ccccc3C2)ccc1Cl)NCc1ccco1		inactive: -2.92%
O=C(/C=C/c1ccco1)NC(=S)Nc1ccc(Cl)cn1	active: 8.91 µM	
COc1ccc(N=Cc2oc3ccc4ccccc4c3c2O)cc1		inactive: -41%
CC(C)Nc1ccc(C(CC(N)=O)NC(=O)c2ccccc2)cc1[N+](=O)[O-] (stereo not drawn)	inconclusive: 12.6 µM [activator, partial curve]	
O=C(Nc1ccc(F)cc1)c1ccc(S(=O)(=O)NCc2cccnc2)cc1	inconclusive: 10 µM [activator, partial curve]	
COc1ccc(Cl)cc1S(=O)(=O)N1CCC(C(=O)NC2CCCC2)CC1		inactive: 22.9%
COc1ccc(-n2c(=S)[nH]c3cc(C(=O)NCc4ccc(F)cc4)ccc3c2=O)c(OC)c1	inconclusive: 20 µM [inhibitor, single point]	
CCC1(c2ccccc2)NC(=O)N(CC(=O)N(C)CC(=O)Nc2c(C)cccc2C)C1=O (stereo not drawn)	inconclusive: 17.8 µM [inhibitor, single point]	
Clc1ccccc1-c1nc(-n2ccnc2)c2ccccc2n1	inconclusive: 7.94 µM [inhibitor, partial curve, poor fit]	
Cc1ccc(CN2CCN(c3cccc4[nH]ccc34)CC2)cc1		inactive: -0.0629%
Cc1ccc2c(c1)N/C(=C(\C=C(/Cl)[N+](=O)[O-])[N+](=O)[O-])N2	inconclusive: 17.8 µM [inhibitor, single point]	
O=C(NCc1ccco1)c1ccc(COc2cccc3ccccc23)cc1	inconclusive: 12.6 µM [activator, partial curve]	
C=CCn1c(=O)c2c(nc3n2CC(C)CN3c2cccc(OC)c2)n(C)c1=O (stereo not drawn)		inactive: -11.9%
Nc1cccc(-c2ccc(CO)o2)c1	inconclusive: 10 µM [inhibitor, partial curve]	
Cc1ccc(NC(=O)CSc2nc(N)c3cc4c(nc3n2)CCCC4)cc1	inconclusive: 6.31 µM [activator, partial curve]	
CSc1sccc1/C=N/NC(=O)c1ccncc1	inconclusive: 15.8 µM [inhibitor, single point]	
O=[N+]([O-])c1ccc(N2CCCCC2)cc1NCCOc1ccccc1	inconclusive: 3.16 µM [activator, single point]	
COC(=O)c1cc(C(=O)Nc2nnc(CC(C)C)s2)cc([N+](=O)[O-])c1	active: 12.6 µM	
COc1cccc(C(=O)COc2ccc3c(C)cc(=O)oc3c2)c1		inactive: -22.2%
Cc1ccc(NC(=O)c2cc(-c3ccccc3)nn2-c2ccccc2)c(Br)c1	inconclusive: 14.1 µM [activator, partial curve]	
CC(C)(C)c1ccc(NC(=S)NCc2cccnc2)cc1	inconclusive: 20 µM [inhibitor, single point]	
CC[C@H](C)C(=O)O[C@H]1CCC=C2C=C[C@H](C)[C@H](CC[C@@H]3C[C@@H](O)CC(=O)O3)[C@H]21	inconclusive: 14.1 µM [activator, partial curve]	

Some of the entries so far, in CSV form.
SMILES,Potency,"activity change, negative = inhibition"
O=C(COC(=O)c1cc(S(=O)(=O)N2CCc3ccccc3C2)ccc1Cl)NCc1ccco1,,inactive: -2.92%
O=C(/C=C/c1ccco1)NC(=S)Nc1ccc(Cl)cn1,active: 8.91 µM,
COc1ccc(N=Cc2oc3ccc4ccccc4c3c2O)cc1,,inactive: -41%
CC(C)Nc1ccc(C(CC(N)=O)NC(=O)c2ccccc2)cc1[N+](=O)[O-] (stereo not drawn),"inconclusive: 12.6 µM [activator, partial curve]",
O=C(Nc1ccc(F)cc1)c1ccc(S(=O)(=O)NCc2cccnc2)cc1,"inconclusive: 10 µM [activator, partial curve]",
